{"source": "PubChem BioAssay AID1259308 (NCATS, 2017)", "purpose": "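Knock-downs that increase output of a recombinant reporter protein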 (primary screen)", "system": "human HEK293 embryonic kidney cells stably expressing firefly luciferase (HEK-CMV-Luc2-Hygro)", "knock-down reagent": "single siRNA against human genes, 0.8 pmol siRNA per well", "duration": "72 h", "measured": "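Reporter luminescence and viable-cell signal on separate replicate plates, given as percent of non-targeting control and median/MAD z-scores, plus per-cell luciferase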", "reading the numbers": "total luciferase, z-score: higher = more reporter protein produced", "rule for the call": "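Active when the median/MAD z-score for overall luciferase is greater than 3; a gene was taken forward for validation with new siRNAs if at least two of its three siRNAs passed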", "calls": "active = raised luciferase; inactive = no rise", "note": "The deposit covers about 59,000 reagents; this is a part drawn at random. Over the whole deposit, about 1,510 (2.6%) are marked active. 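Calls use total luciferase alone and ignore viability, so some active siRNAs may act by altering cell number.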 A number with no mark means an inactive call. Reagents against one gene are numbered here. Further read-outs or replicates are left out here."}
{"gene": "OBSL1", "siRNA no.": 1, "total luciferase, z-score": 0.231}
{"gene": "OBSL1", "siRNA no.": 2, "total luciferase, z-score": -0.117}
{"gene": "OBSL1", "siRNA no.": 3, "total luciferase, z-score": -0.658}
{"gene": "CPA4", "siRNA no.": 1, "total luciferase, z-score": 2.33}
{"gene": "CPA4", "siRNA no.": 2, "total luciferase, z-score": -0.977}
{"gene": "CPA4", "siRNA no.": 3, "total luciferase, z-score": 0.935}
{"gene": "POLR3B", "siRNA no.": 1, "total luciferase, z-score": 2.11}
{"gene": "POLR3B", "siRNA no.": 2, "total luciferase, z-score": 0.131}
{"gene": "POLR3B", "siRNA no.": 3, "total luciferase, z-score": -1.06}
{"gene": "GZMB", "siRNA no.": 1, "total luciferase, z-score": -0.955}
{"gene": "GZMB", "siRNA no.": 2, "total luciferase, z-score": 0.757}
{"gene": "GZMB", "siRNA no.": 3, "total luciferase, z-score": -0.4}
{"gene": "SNAP23", "siRNA no.": 1, "total luciferase, z-score": -0.45}
{"gene": "SNAP23", "siRNA no.": 2, "total luciferase, z-score": 1.28}
{"gene": "SNAP23", "siRNA no.": 3, "total luciferase, z-score": -1.76}
{"gene": "ARF1", "siRNA no.": 1, "total luciferase, z-score": -0.243}
{"gene": "ARF1", "siRNA no.": 2, "total luciferase, z-score": -0.652}
{"gene": "ARF1", "siRNA no.": 3, "total luciferase, z-score": -0.0208}
{"gene": "PLA2G7", "siRNA no.": 1, "total luciferase, z-score": 0.869}
{"gene": "PLA2G7", "siRNA no.": 2, "total luciferase, z-score": 0.538}
{"gene": "PLA2G7", "siRNA no.": 3, "total luciferase, z-score": -0.7}
{"gene": "RALGDS", "siRNA no.": 1, "total luciferase, z-score": -0.0772}
{"gene": "RALGDS", "siRNA no.": 2, "total luciferase, z-score": 0.277}
{"gene": "RALGDS", "siRNA no.": 3, "total luciferase, z-score": -0.486}
{"gene": "TMEM140", "siRNA no.": 1, "total luciferase, z-score": -0.981}
{"gene": "TMEM140", "siRNA no.": 2, "total luciferase, z-score": -0.916}
{"gene": "TMEM140", "siRNA no.": 3, "total luciferase, z-score": "5.45 (active)"}
{"gene": "AQP9", "siRNA no.": 1, "total luciferase, z-score": -1.55}
{"gene": "AQP9", "siRNA no.": 2, "total luciferase, z-score": -0.0246}
{"gene": "AQP9", "siRNA no.": 3, "total luciferase, z-score": 0.443}
{"gene": "CPNE1", "siRNA no.": 1, "total luciferase, z-score": 0.237}
{"gene": "CPNE1", "siRNA no.": 2, "total luciferase, z-score": -0.637}
{"gene": "CPNE1", "siRNA no.": 3, "total luciferase, z-score": 1.5}
{"gene": "B3GNT9", "siRNA no.": 1, "total luciferase, z-score": -0.0036}
{"gene": "B3GNT9", "siRNA no.": 2, "total luciferase, z-score": -0.0797}
{"gene": "B3GNT9", "siRNA no.": 3, "total luciferase, z-score": 1.79}
{"gene": "PPP2CB", "siRNA no.": 1, "total luciferase, z-score": 1.55}
{"gene": "PPP2CB", "siRNA no.": 2, "total luciferase, z-score": 0.821}
{"gene": "PPP2CB", "siRNA no.": 3, "total luciferase, z-score": 0.477}
{"gene": "FAM8A1", "siRNA no.": 1, "total luciferase, z-score": "3.14 (active)"}
{"gene": "FAM8A1", "siRNA no.": 2, "total luciferase, z-score": 0.626}
{"gene": "FAM8A1", "siRNA no.": 3, "total luciferase, z-score": 0.626}

Quoted from above (5 entries):
{"gene": "CPNE1", "siRNA no.": 2, "total luciferase, z-score": -0.637}
{"gene": "CPNE1", "siRNA no.": 3, "total luciferase, z-score": 1.5}
{"gene": "B3GNT9", "siRNA no.": 1, "total luciferase, z-score": -0.0036}
{"gene": "B3GNT9", "siRNA no.": 2, "total luciferase, z-score": -0.0797}
{"gene": "B3GNT9", "siRNA no.": 3, "total luciferase, z-score": 1.79}
